According to PubChem BioAssay AID2685 (National Center for Advancing Translational Sciences (NCATS), 2010):
Some of the results follow. Shown are side measurements of this screen, not its main read-out; they come without a call. The list favours compounds with an active or inconclusive main result. The note in brackets gives the kind of curve behind each potency; many fits are weak.

Assay: qHTS Assay for Lipid Storage Modulators in Drosophila S3 Cells;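 for cell number change: cells counted by Cell Tracker Red CMTPX staining in the red channel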
Details: BODIPY lipid droplet fluorescence, 18-24 h; for cell number change: measured here: cell count max response, cells fed with added oleic acid
Method in brief: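 Laser-scanning cytometry quantifies lipid droplet accumulation (500–530 nm total intensity; droplet/cell object ratio) in oleic acid-fed (400 uM added) Drosophila S3 cells treated with a concentration series. 20 uM Triacsin C defined 100% inhibition.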

[1] = measured here: cell number channel AC50, cells fed with added oleic acid
[2] = measured here: lipid fluorescence (Fed channel) AC50, cells fed with added oleic acid

| SMILES | cell number change | AC50 [1] | AC50 [2] |
| --- | --- | --- | --- |
| FC(F)(F)c1ccc(NCCc2ccccc2)nc1 | -2.89% | – | – |
| Cc1ccc(C(=O)CCC(=O)Nc2ccccc2C)cc1C | 34.7% | 0.0517 µM [rising, full curve, poor fit] | – |
| CC(C)=CC(=O)Nc1ccc(S(=O)(=O)Nc2onc(C)c2C)cc1 | 5.03% | – | 18.4 µM [rising, partial curve] |
| CCCCn1nc2cc(C(=O)NCc3ccccc3OC)ccc2c1OCC | -19.1% | – | 29.1 µM [falling, single point] |
| Cc1ccc(S(=O)(=O)N2CCCCC2CCNC(=O)C(=O)NC2CCCC2)cc1 (stereo not given) | – | – | 0.103 µM [falling, full curve] |
| Nc1[nH][nH]c(=O)c1N=Nc1ccc2c(c1)OCO2 | -16.7% | – | 6.51 µM [falling, single point] |
| COc1ccc(Cc2nnc(NC(=O)Nc3ccc(C)cc3)s2)cc1OC | 18.4% | – | 0.0517 µM [rising, full curve] |
| COc1ccc(CCNC(=O)COC(=O)c2cccs2)cc1OC | -13.5% | 2.06 µM [falling, single point] | 25.9 µM [falling, single point] |
| Cc1cc(C(=O)Nc2ccc3c(c2)OCO3)no1 | -21.1% | – | – |
| CCOc1ccc(C(=O)NCC(C)NC(=O)c2ccc(OCC)cc2)cc1 (stereo not given) | 24.6% | – | 0.164 µM [rising, full curve, poor fit] |
| CCc1ccc(N(C(=O)CNC(=O)c2ccco2)C(C(=O)NCC2CCCO2)c2ccccc2)cc1 (stereo not given) | 15.2% | – | – |
| O=C1c2ccccc2C(=O)N1CCCCSc1nnnn1-c1ccccc1 | -33.7% | 29.1 µM [falling, single point] | – |
| O=C(CCNS(=O)(=O)c1ccc(Cl)cc1)NCc1cccnc1 | -29.8% | – | 29.1 µM [falling, single point] |
| CCC(C(=O)Nc1ccccc1C(=O)N1CCCC1)N1C(=O)c2ccccc2C1=O (stereo not given) | 0.951% | – | – |
| CSCCC(N=C1NS(=O)(=O)c2ccccc21)C(=O)N1CCCC(C(N)=O)C1 (stereo not given) | -39.8% | 29.1 µM [falling, single point] | – |
| O=C(c1cc2ccccc2oc1=O)N1CCCC1 | 17% | – | 2.91 µM [rising, single point] |
| Cc1c(C)c2ccc(O[C@@H]3O[C@H](CO)[C@H](O)[C@H](O)[C@H]3O)c(C)c2oc1=O | -21.1% | 0.231 µM [falling, full curve, poor fit] | – |
| Cc1cccc2c1-c1sc(C(=O)Nc3ccccc3N3CCN(C)CC3)cc1CO2 | 3.8% | 0.517 µM [rising, partial curve] | 1.03 µM [rising, full curve] |
| O=c1oc2ccccc2cc1-c1csc(Nc2nc3ccc(F)cc3s2)n1 | -12.6% | – | 11.6 µM [rising, partial curve, poor fit] |
| CCOc1ccc(S(=O)(=O)N/N=C(\C)c2ccc(Cl)c(Cl)c2Cl)cc1 | -56.9% | 29.1 µM [falling, single point] | 29.1 µM [falling, single point] |
| O=C(CN1CCc2ccccc2C1)Nc1ccccc1C(=O)NC1CC1 | 16% | – | 0.82 µM [falling, full curve, poor fit] |

| SMILES | cell number change | AC50 [1] | AC50 [2] |
| --- | --- | --- | --- |
| O=C(O)CCCn1cc(NC(=O)COc2ccc(F)cc2)cn1 | -12.4% | – | – |
| CCOc1ccc(C(=O)NC(=S)Nc2ccc(NC(=O)CC)cc2)cc1[N+](=O)[O-] | 19.7% | – | 2.91 µM [rising, full curve] |
| CCCCn1c(N)c(N(CCOC)C(=O)c2c(C)noc2C)c(=O)[nH]c1=O | 10.5% | – | – |
| O=C(COc1ccc(Cl)cc1)Nc1cccc(-c2ccc3nncn3n2)c1 | -14.1% | 0.116 µM [falling, full curve, poor fit] | 0.116 µM [falling, full curve, poor fit] |
| Cc1ccc2nc(N(CCCN(C)C)C(=O)c3cc4ccccc4oc3=O)sc2c1 | -12.4% | – | 29.1 µM [rising, partial curve] |
| CC1CCN(C(=O)CSc2n[nH]c(-c3cccs3)n2)CC1 | -33.1% | 20 µM [falling, single point] | 20 µM [falling, single point] |
| COc1cc(/C=N/NC(=O)c2ccc(CN3C(=O)c4cccc5cccc3c45)cc2)cc(OC)c1O | – | – | 1.84 µM [falling, full curve] |
| CCOc1cc(/C=N/O)ccc1OCc1ccc(C)cc1 | -19.7% | – | 32.6 µM [falling, single point] |
| CC(C)CN(C(=O)CC(C)c1ccccc1)c1c(N)n(Cc2ccccc2)c(=O)[nH]c1=O (stereo not given) | -11.2% | – | 29.1 µM [rising, single point] |
| COc1ccc(S(=O)(=O)N2CCCC2C(=O)Nc2nccs2)cc1 (stereo not given) | 6.82% | 0.411 µM [falling, single point] | – |
| Cc1cc(NC(=O)CCCSc2nc(-c3ccco3)cc(C(F)(F)F)n2)no1 | 1.49% | – | 1.16 µM [falling, single point] |
| CC(C)CCNC(=O)C(c1ccco1)N(CCCO)C(=O)Cn1nnc(-c2ccc(F)cc2)n1 (stereo not given) | 7.72% | – | 5.8 µM [rising, partial curve] |
| O=C(CCSc1ccccc1)OCn1nnc2ccccc2c1=O | -6.27% | – | – |
| CCOC(=O)c1c(N)sc2c(OCC)c(Br)ccc12 | -53.3% | 23.1 µM [falling, single point] | 29.1 µM [falling, single point] |
| O=C(N/N=C/c1ccc(N2CCCC2)c([N+](=O)[O-])c1)c1cccnc1 | 20.1% | – | 5.62 µM [rising, partial curve, poor fit] |
| CC(=O)N1c2ccc(S(=O)(=O)N3CCCC(C(=O)Nc4cc(C)cc(C)c4)C3)cc2CC1C (stereo not given) | 8.98% | – | 0.731 µM [falling, single point] |
| Cc1cccc(N2CC(C(=O)Nc3ccc(S(=O)(=O)NCC4CCCO4)cc3)CC2=O)c1C (stereo not given) | 13.7% | – | 0.82 µM [rising, full curve] |
| O=C(CCN1C(=O)/C(=C\c2ccc(F)cc2)SC1=S)Nc1ccc(O)cc1 | -0.538% | – | 6.51 µM [rising, single point] |
| CN(CC(=O)Nc1cccc(S(=O)(=O)N2CCCCC2)c1)Cc1ccc(F)cc1 | -11.7% | – | 3.66 µM [falling, single point] |
| COc1ccccc1N1CCN(C(=O)CSc2nc(C)cc(=O)[nH]2)CC1 | 28.2% | – | 6.51 µM [falling, single point] |
| Brc1ccc(-c2csc(NNC3=NCCCCC3)n2)cc1 | – | – | 25.9 µM [falling, partial curve, poor fit] |

Arranged by heavy-atom count (ascending): some entries from above.

| SMILES | cell number change | AC50 [1] | AC50 [2] |
| --- | --- | --- | --- |
| CC1CCN(C(=O)CSc2n[nH]c(-c3cccs3)n2)CC1 | -33.1% | 20 µM [falling, single point] | 20 µM [falling, single point] |
| O=C(CCSc1ccccc1)OCn1nnc2ccccc2c1=O | -6.27% | – | – |
| Cc1cc(NC(=O)CCCSc2nc(-c3ccco3)cc(C(F)(F)F)n2)no1 | 1.49% | – | 1.16 µM [falling, single point] |
| CC(C)CN(C(=O)CC(C)c1ccccc1)c1c(N)n(Cc2ccccc2)c(=O)[nH]c1=O (stereo not given) | -11.2% | – | 29.1 µM [rising, single point] |
| CC(=O)N1c2ccc(S(=O)(=O)N3CCCC(C(=O)Nc4cc(C)cc(C)c4)C3)cc2CC1C (stereo not given) | 8.98% | – | 0.731 µM [falling, single point] |

(next part)

| SMILES | cell number change | AC50 [1] | AC50 [2] |
| --- | --- | --- | --- |
| Cc1ccccc1NC(=O)Cc1nc(COC(=O)c2cc([N+](=O)[O-])ccc2NCCO)cs1 | 55.8% | 5.8 µM [rising, partial curve, poor fit] | 2.31 µM [rising, partial curve, poor fit] |
| CCN1CCN(C(=O)c2cc(S(=O)(=O)N3CCCCC3)ccc2Cl)CC1 | 16.5% | – | – |
| CCCn1nc(-c2ccccc2)c2nc3ccccc3nc21 | 13.1% | – | 0.411 µM [rising, full curve, poor fit] |
| COc1ccc(N2CCN(C(=O)C(=O)c3cn(CC(=O)N4CCCCCC4)c4ccccc34)CC2)cc1 | 17.3% | – | – |
| O=C(CSc1ncccn1)NCc1ccc2c(c1)OCO2 | -3.81% | – | – |
| CCn1c(SCc2ccc(C(=O)OC)o2)nc2sc3c(c2c1=O)CCCC3 | 10.6% | – | 2.31 µM [rising, single point] |
| Cc1ccc(-c2nc3sc4c(c3c(=O)n2N)CC(C)(C)OC4)cc1 | 12% | – | 2.06 µM [falling, partial curve] |
| Cc1ccc(NC(=O)CCCN2C(=O)NC(C)(C)C2=O)cc1 | 12.1% | 3.66 µM [falling, single point] | 3.66 µM [falling, single point] |
| CC(c1nnc(SCC(=O)Nc2ccc3[nH]c(=O)[nH]c3c2)n1Cc1ccccc1)N(C)C (stereo not given) | -11.5% | – | – |
| CC1CCCN(C(=O)c2cn(-c3ccccc3)nc2-c2cccnc2)C1 (stereo not given) | -25% | 0.366 µM [falling, partial curve, poor fit] | – |
| O=C(CSc1ccc(-c2ccc(-n3cccn3)cc2)nn1)Nc1ccccc1F | 5.9% | – | 4.11 µM [falling, single point] |
| COCc1ccc(C(=O)N2CCCC(N(C)CCc3ccc(OC)c(OC)c3)C2)s1 (stereo not given) | 4.4% | – | – |
| O=C(O)/C=C/c1ccc(S(=O)(=O)N2CCN(CCN3C(=O)C4C5C=CC(C5)C4C3=O)CC2)cc1 (stereo not given) | -16.7% | – | 0.00461 µM [falling, full curve, poor fit] |
| COc1ccc(NC(=O)CNc2ccccc2N2CCCC2=O)cc1S(=O)(=O)N1CCOCC1 | 6.56% | – | 4.11 µM [rising, full curve] |
| CCCCC(O)(CCN1CCOCC1)c1ccc(Cl)cc1 (stereo not given) | – | 0.13 µM [falling, full curve, poor fit] | 0.58 µM [falling, single point] |
| CCOC(=O)C(C)Sc1nc2c(c(-c3cccs3)c1C#N)CCC2 (stereo not given) | -20.1% | – | 0.116 µM [rising, full curve, poor fit] |
| COC(=O)CCCC(=O)N1CCOCCN(C(=O)CCCC(=O)OC)CCOCC1 | 4.11% | – | 36.6 µM [falling, partial curve, poor fit] |
| Clc1ccc(-c2nc3ccccc3[nH]2)cn1 | -4.94% | – | 2.59 µM [falling, single point] |
| COc1ccc(-c2cc(C(=O)N3CC(C)CC(C)C3)c3ccccc3n2)cc1OC (stereo not given) | 4.76% | – | 0.231 µM [rising, full curve, poor fit] |
